Source: US6413750B1, “(R)-specific alcohol dehydrogenases from lactobacillus with improved catalytic activity using an NAD+ substrate” (Forschungszentrum Jülich GmbH, priority 1998, dated 2002)

Assay: pH optimum of enzyme activity
Type: biochemical, Lactobacillus brevis
Procedure: For determining the optimal pH value, the following buffers were used: pH 4.5=Na-acetate; pH 5.0 and 5.5=Na-acetate; pH 6.0 and 6.5=Kpi or MES; pH 7.0 and 7.5=Kpi or TEA; pH 8.0 and 8.6=Tris; pH 9.0=Bicine. All buffers were used in a concentration of 100 mM. For the determination of the reductive reaction 10 mM acetophenon was added. The concentrations of NADP/NAD were each 2 mM. The concentration of NADH/NADPH was each 0.25 mM. For measurement, 970 μl of the respective buffer solution, which already included substrate at the desired concentration, was mixed with 20 μl of the start solution with the desired co-enzyme. The reaction was started with 10 μl enzyme. the dilution factor depended on the activity, it was chosen in the range of 1 to 3 U/ml.

[1] = oxidation of phenylethanol with NADP+
[2] = reduction of acetophenone with NADH
[3] = reduction of acetophenone with NADPH

Substance | pH optimum [1] | pH optimum (oxidation with NAD+) | pH optimum [2] | pH optimum [3]
mutant 1/1: L. brevis ADH mutant with exchanges A9G, R38L, K45M (SEQ ID NO 17) (SNRLDGKVGIITGGTLGIGLAIATKFVEEGAKVMITGLHSDVGEMAAKSV; OTHER INFORMATION: mutant 1/1) | 7.0 | 7.5 | 6.0 | 6.0
mutant 2/2: L. brevis ADH mutant with exchanges A9G, R38L, H39L, K48M (SEQ ID NO 19) (SNRLDGKVGIITGGTLGIGLAIATKFVEEGAKVMITGLLSDVGEKAAMSV; OTHER INFORMATION: mutant 2/2) | 7.5 | 7.5 | 5.0 | 6.0
